Measurements taken from PubChem BioAssay AID1794845 (National Center for Advancing Translational Sciences (NCATS), 2023).
Among all 6,900 compounds or so, fewer than 10 were called active. Calls follow the shape of the dose curve; as a rule, active = well fitted curve in the direction sought with a large enough effect; inconclusive = small, poorly fitted or top-dose-only effect, or another doubt; inactive = no such curve, though single readings can be large or run the other way. Some of the results follow.

Sequences of proteins named here, by UniProt entry; tags and fusion partners are left off. A change or cut given only in a name is not applied to a line headed by its entry.
UniProt C7C422: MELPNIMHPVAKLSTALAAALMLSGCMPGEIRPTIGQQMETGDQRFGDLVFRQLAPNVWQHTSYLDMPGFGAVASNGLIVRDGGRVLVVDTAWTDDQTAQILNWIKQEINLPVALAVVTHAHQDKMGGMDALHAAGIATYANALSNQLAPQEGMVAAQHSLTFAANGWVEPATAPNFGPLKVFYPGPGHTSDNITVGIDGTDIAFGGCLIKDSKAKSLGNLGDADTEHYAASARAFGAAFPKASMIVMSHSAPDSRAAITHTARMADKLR

target: Metallo-beta-lactamase type 2 (Klebsiella pneumoniae) (UniProt C7C422); assay: qHTS to identify inhibitors of the New Delhi Metallo-beta-lactamase (NDM): primary screen against the NCATS Gemini Collection; details: NDM-1 enzyme, meropenem hydrolysis, absorbance 300 nm; at 38.4 µM (top of the series) unless noted; also: % of control where 0% means no effect
Summary of the method: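 Meropenem hydrolysis (50 uM final) by 2 nM NDM-1 read as 300 nm absorbance after 30 min, following >30 min compound–enzyme preincubation in HEPES pH 7.0 with 1 uM ZnSO4 and 0.01% Tween20.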

Structure (SMILES)	activity % (negative = inhibition)
CCN(CC)C(=O)[C@@H]1CCC[C@@H](NC(=O)c2ccc(OC)cc2)CN(C)C(=O)C1	inactive: 0.501% [at 57.5 µM]
Cc1nc2ncccn2c1C(=O)N1CCC2(CCCN(C)C2=O)C1 (centres undefined)	inactive: 9.6%
C=CCCC(CN1CCOCC1)Oc1ccc(-c2ccccc2)nn1 (centres undefined)	inactive: -3.56%
CCc1ccc(CNC(=O)Cn2c(C)cc3nc4n(c(=O)c32)CCCC4)cc1	inactive: -1.33%
CC(=O)NC1CCN(Cc2cn(-c3ccc(C)cc3)nc2-c2cccc(C)c2)C1 (centres undefined)	inactive: 4.18%
CCN(CC)C(=O)N1CCC(c2noc(-c3ccccc3)n2)C1 (centres undefined)	inactive: 5.36%
Cc1noc([C@@H]2C[C@H](NC(=O)C3CCCCC3)CN2C)n1	inactive: 2.83% [at 77.1 µM]
COc1ccc(N2CCN(c3nc(C(=O)NCc4cccc(C)c4)cs3)CC2)cc1	inactive: 2.65%
Cc1ncc2n1C(=O)N(C1CCN(Cc3ccncc3)CC1)C2	inactive: -1.28% [at 57.5 µM]
CCOC(=O)N1CCC(N[C@@H]2CC[C@@H]2NC(=O)CCn2cncn2)CC1	inactive: 8.66%
NC(=O)COC[C@@H]1CN(Cc2ccco2)C[C@H]1c1ccncc1	inactive: 20.4%
COC[C@H]1NC(=O)CC[C@H]1C(=O)N1CCCc2ccccc21	inactive: 27.6%
CCCNC(=O)NCCn1c(C)cnc1-c1ccncc1	inactive: 43.4%
C#CCN(C)CC[C@@H]1CC[C@H](O)[C@@H](C(=O)NC2CCCCC2)O1	inactive: 8.09% [at 57.5 µM]
NCC(=O)N1CCC2(CC1)CN([S+](=O)([O-])c1ccccc1)CCO2	inactive: 1.41%
CN1CCN(Cc2cccc(OCC(O)CN3CCOCC3)c2)CC1(C)C (centres undefined)	inactive: -1.26%
CC(C)CCN1CCC2(COc3ccccc3C(=O)N2)C1 (centres undefined)	inactive: 70% [at 57.5 µM]
O=[S+]([O-])(c1cccc(C(F)(F)F)c1)N1CCc2nc(-c3ccccc3)nc(-c3ccc(Cl)cc3)c2C1	inactive: 3.17%
CCC(=O)N1CCc2c(C(=O)NCC(C)C)cccc21	inactive: 0.333%
CCN(CC1CCCN(CCc2cccc(OC)c2)C1)C(=O)CSC (centres undefined)	inactive: 2.85%
O=C(CCn1cccn1)NC1CC(=O)N(Cc2cccc3ccccc23)C1 (centres undefined)	inactive: 11.4%
Cc1cc(C)c(CNC(=O)c2nc(-c3cccnc3)cc3[nH]ccc23)c(=O)[nH]1	inactive: 18.8% [at 57.5 µM]
O=C1NCCC[C@@H]1NC(=O)[C@H]1CN(C(=O)c2cccc(F)c2)CCN1C(=O)c1cccs1	inactive: 1.88%
CCc1noc([C@@H]2CC(F)(F)CN2C(=O)c2ccn(CC)n2)n1	inactive: 10.1%
CCCNC(=O)N(C1CCOCC1)C1CCN(C(=O)Cc2cccnc2)CC1	inactive: -2.81%
O=C(Cc1cccc(Cl)c1)NCCNC(=O)c1cccc(-c2ccsc2)c1	inactive: 77.3%
O=C(c1ccc(F)cc1)N1CCCC(C(=O)N2CCCC2c2nc3ccncc3[nH]2)C1 (centres undefined)	inactive: 0.752%

Structure (SMILES)	activity % (negative = inhibition)
Cc1nn(C)c(C)c1CNC(=O)C1CC(=O)N(c2n[nH]c3cccc(F)c23)C1 (centres undefined)	inactive: 6.28%
CC(=O)N1CCn2c(nn(-c3ccncc3)c2=O)C1	inactive: 0.577% [at 57.5 µM]
COc1ccc(OC)c(S(=O)(=O)N2CCCOCCNC(=O)[C@@H]3CCCC[C@@H]32)c1	inactive: 42.4%
CC(C)[C@@H]1CN(C(=O)CCn2ccc(=O)[nH]c2=O)C[C@H]1NC(=O)N(C)C	inactive: -0.847%
OC1(c2csc(CN3CCOCC3)n2)CCN(C2CCCC2)CC1	inactive: -0.884% [at 57.5 µM]
CN(C)c1nccnc1OC1CCN(S(=O)(=O)Cc2ccccc2)C1 (centres undefined)	inactive: 18%
OCC1(Cc2ccccc2F)CCCN(c2nnnn2-c2ccccc2)C1 (centres undefined)	inactive: 0.361%
CCn1c(=O)c2c(cc(C)n2C)n(CC(=O)Nc2ccccc2C)c1=O	inactive: 31.4%
O=C(NC1CCOCC1)c1ccc(OC2CCN(Cc3ccccn3)CC2)cc1	inactive: -1.94%
COCCCNC(=O)CN1CCCc2nc(-c3ccncc3)ncc2C1=O	inactive: 22.5%
CC(C)(C)CC(=O)N1CC[C@H](NC(=O)NC2CCCCC2)[C@H]1C(=O)N[C@H](Cc1c[nH]c2ccccc12)C(N)=O	inactive: -1.06%
COc1cc(Cl)c(CN2CCC[C@H]2C(=O)O)cc1OC	inactive: 18.6%
COCCNC(=O)C[C@@H]1O[C@H](CNS(=O)(=O)c2ccc(C)cc2)[C@@H](O)[C@H]1O	inactive: 2.4% [at 57.5 µM]
Cn1ccnc1-c1ccc(N2CCCC(CO)(CCOc3ccccc3)C2)nn1 (centres undefined)	inactive: 17.9%
O=C(N[C@H](c1ccccc1)C1CC(O)C1)c1ccc(-n2cccn2)cc1 (some centres undefined)	inactive: 3.77%
COc1cccc(CN2C(=O)CCCCC2C(=O)NC2CCS(=O)(=O)C2)c1 (centres undefined)	inactive: 3.88%
Cn1cc(-c2cc(=O)c3ccnc(NCc4ccc(F)cc4)c3o2)cn1	inactive: 19.9% [at 57.5 µM]
O=C(CCc1cc2n(n1)CCCNC2)N1CCCC(c2nnc3ccccn23)C1 (centres undefined)	inactive: 2.81%
CCCN1C(=O)Cc2cc(C(=O)N3CCN(c4ccccc4Cl)CC3)ccc21	inactive: -4.94%
Cc1ccsc1-c1[nH]nc2ncc(-c3ccnn3C)nc12	inactive: 1.37% [at 77.1 µM]
CN(C)C(=O)N(C)Cc1ccc(F)cc1	inactive: -10% [at 77.1 µM]
COc1ccc(-c2noc(C(=O)O)c2[C@@H](C)NC(=O)C2CCCCC2)cc1	inactive: 2.52% [at 57.5 µM]
COCC(=O)N[C@@H]1CN(C(=O)Cc2cccc(OC)c2)CC[C@@H]1c1nc(C)no1	inactive: -1.89%
COc1ccc(CNC(=O)c2cnc3c(c2)N(C(=O)CCc2ccccc2)CCC3)cc1OC	inactive: 4.85%
COc1ccc([C@H](C)NC(=O)c2c(C)noc2-c2cccs2)cc1	inactive: 16.5%
CCCNC(=O)N1CCC(N2CC(OCC3CC3)C23CCCCC3)CC1 (centres undefined)	inactive: -2.61%
Cc1cc(=O)n(CC(=O)NC(C)CCc2ccccc2)c(N2CCOCC2)n1 (centres undefined)	inactive: 13.5%

Ordered by formula weight (high to low): some entries from above
Structure (SMILES)	activity % (negative = inhibition)
CCN(CC)C(=O)[C@@H]1CCC[C@@H](NC(=O)c2ccc(OC)cc2)CN(C)C(=O)C1	inactive: 0.501% [at 57.5 µM]
CCc1ccc(CNC(=O)Cn2c(C)cc3nc4n(c(=O)c32)CCCC4)cc1	inactive: -1.33%
CC(C)CCN1CCC2(COc3ccccc3C(=O)N2)C1 (centres undefined)	inactive: 70% [at 57.5 µM]
